Results as given in PubChem BioAssay AID624297 (National Center for Advancing Translational Sciences (NCATS), 2012).
Several values for one entry are separate records, joined by “and”; a condition that tells them apart may be missing. Equal entries are not always repeated. The whole screen tested about 340,000 compounds, of which about 6,200 (1.8%) were called active. Inconclusive means that the source gave no clear call. Such entries were picked first, then a sample of the others. Calls come from the whole dose curve; as a rule, active = well fitted activation curve with a large enough effect; inconclusive = small, poorly fitted or top-dose-only effect; inactive = no such curve, though single readings can be large or run the other way. A potency beside an inconclusive call is a rough fit, not a confirmed value.

Assay: A quantitative high throughput screen for small molecules that induce DNA re-replication in SW480 colon adenocarcinoma cells. For re-replication activation: % of control where 0% means no effect. Note: nearly all actives have a fitted effect of over 55% in size.
Details: Hoechst DNA content imaging, 48 h; re-replication activation: at 46.1 µM (top of the series)
Summary of the method: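 250 cells/well; 23 nL cpd via pin tool; 48 hr, 37 C, 5% CO2; Hoechst 40 min; imager read of total nuclear intensity, ex 405/em 500-530 nm.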
Potency is the fitted concentration of half-maximal effect.

SMILES	re-replication activation	Potency
CN1C(=O)N(C)C(=O)C(NS(=O)(=O)c2ccc(N)cc2)(c2ccccc2)C1=O	inactive: -4.41%	
COC(=O)c1cn(S(=O)(=O)c2ccccc2)c2ccccc12		inconclusive: 20.6 µM [activator, single point]
C=CCN1C(=O)c2ccccc2Sc2ccc(C(=O)N3CCC4(CC3)OCCO4)cc21	inactive: -3.9%	
O=c1cccc2n1CC1CC2CN(Cc2cccc(Cl)c2Cl)C1 (centres undefined)	inactive: 1.82%	
O=C1NC(=O)C(=Cc2ccc(SC3CCCCC3)o2)C(=O)N1		inconclusive: 29.1 µM [activator, single point]
O=[N+]([O-])[N-][n+]1cnn(Cc2ccccc2)c1		inconclusive: 0.411 µM [activator, full curve, poor fit]
CCCCCSc1cc(OC)c(CCNC)cc1OC		inconclusive: 29.1 µM [activator, single point]
Oc1ccc2ccccc2c1CN1CC=C(c2ccccc2)CC1	inactive: -27.9%	
CCCCn1c(O)c(C(CC)=NC(C)c2ccccc2)c(=O)[nH]c1=O (centres undefined)		inconclusive: 29.1 µM [activator, single point]
Cc1cccc(C(=O)NCCC(=O)NCc2ccccc2F)c1	inactive: -44.4%	
CCOC(=O)C1(CCOc2ccccc2)CCN(Cc2cnc(SC)nc2)CC1		inconclusive: 0.92 µM [activator, partial curve, poor fit]
COC(=O)C1=C(C(=O)OC)SC2(S1)C(C(=O)OC)=C(C(=O)OC)Sc1c2ssc1=O		active: 1.03 µM
CCN1C[C@]2(COC)CC[C@H](O)[C@@]34C5C[C@@H]6[C@@H](OC)C[C@@](O)(C5[C@H]6O)[C@](O)([C@@H](OC)C23)[C@@H]14 (some centres undefined)		inconclusive: 29.1 µM [activator, single point]
Cn1c(=O)oc2cc(NC(=O)CCl)ccc21		inconclusive: 23.1 µM [activator, single point]
C#CCN1C(=O)S/C(=C\c2ccc(N3CCOCC3)cc2C)C1=O		inconclusive: 4.61 µM [activator, full curve, poor fit]
Cc1ccnc(NS(=O)(=O)c2cc([N+](=O)[O-])ccc2C)c1		inconclusive: 4.61 µM [activator, single point]
COc1ccc2c3c1O[C@H]1C(=O)CC[C@H]4[C@@H](C2)N(C)CC[C@]314		inactive and inconclusive: 259 nM [activator, single point]
NC(Cc1ccccc1)c1nc(-c2ccccc2)no1 (centres undefined)		inconclusive: 29.1 µM [activator, single point]
COc1ccc(/C=C/C(=O)c2c(O)n(CCC3=CCCCC3)c(=O)[nH]c2=O)cc1	inactive: -1.25%	
O=[N+]([O-])c1cccc(NP(=O)(Oc2ccccc2)Oc2ccccc2)c1		inconclusive: 25.9 µM [activator, single point]
Cc1sc(NC(=O)CSc2n[nH]c(N)n2)c(C#N)c1C		inconclusive: 10.3 µM [activator, partial curve, poor fit]
COC(=O)[C@@]1(Cc2ccccc2)[C@H]2C(=O)N(Cc3ccccc3)C(=O)[C@H]2[C@H]2CN=C(SCc3ccc(C#N)cc3)N21		inconclusive: 4.11 µM [activator, single point]
CN1C(=O)/C(=C/C=C/c2ccco2)C(=O)NC1=S		inconclusive: 11.6 µM [activator, partial curve]

SMILES	re-replication activation	Potency
Cc1cc(=O)oc2cc3c(cc12)CCCN3		inconclusive: 1.46 µM [activator, full curve, poor fit]
COc1cccc(CC(=O)N2CCN(Cc3cccc(Cl)c3)CC2)c1		inconclusive: 29.1 µM [activator, single point]
C#CCN(C)[C@H](C)Cc1ccccc1		inconclusive: 13 µM [activator, single point]
c1cc2c(cc1NC1=NCCO1)CCCC2		inconclusive: 16.4 µM [activator, single point]
c1ccc2c(CN3CCCCCC3)c[nH]c2c1	inactive: 0.31%	
CN(C)CCN(C(=O)c1ccc(S(=O)(=O)N2CCc3ccccc32)cc1)c1nc2ccc(F)cc2s1		inconclusive: 0.116 µM [activator, full curve, poor fit]
Cc1cccc(OP(=O)(Nc2ccc(F)cc2)Oc2cccc(C)c2)c1		inconclusive: 25.9 µM [activator, partial curve, poor fit]
COCCN1C(=O)NC(=O)/C(=C\c2ccc(Br)cc2)C1=O	inactive: -23.6%	
CSc1ccc(CN2CCN(C(=O)Cc3ccccc3)CC2)cc1		inconclusive: 2.06 µM [activator, full curve]
O=C(/C=C/c1ccc(Cl)cc1)NC(=S)N1C[C@H]2C[C@H](C1)c1cccc(=O)n1C2	inactive: -2.65%	
CC(C)C[C@H]1C(=O)N2CCC[C@H]2[C@]2(O)O[C@](NC(=O)[C@@H]3C=C4c5cccc6[nH]c(Br)c(c56)CC4N(C)C3)(C(C)C)C(=O)N12 (some centres undefined)		inconclusive: 23.1 µM [activator, partial curve, poor fit]
COC(=O)C1=C(c2ccc(OC)c(OC)c2)C[C@@H]2CC[C@H]1N2C(=O)N1CCCCC1		inconclusive: 0.206 µM [activator, full curve, poor fit]
N#CC(C#N)=NNc1ccc([N+](=O)[O-])cc1		inconclusive: 20.6 µM [activator, single point]
CCOc1ccc(-c2c(C)n(-c3ccc(OCC)cc3)c3[n+]2CCCCC3)cc1		inconclusive: 6.51 µM [activator, full curve]
CCP(=S)(CC)c1ccc(N(C)C)cc1		inconclusive: 1.03 µM [activator, full curve, poor fit]
O=C1NC(=O)N(CCc2ccc(F)cc2)C(=O)/C1=C/C=C/c1ccccc1		inconclusive: 32.6 µM [activator, single point]
O=C1NC(=O)N(Cc2ccc(F)cc2)C(=O)/C1=C\C=C\c1ccco1		active: 8.2 µM
CCSc1cc(C2C(C#N)=C(N)Oc3n[nH]c(C)c32)c(C)o1 (centres undefined)		inconclusive: 17.8 µM [activator, partial curve, poor fit]
O=C(CSc1ccccc1)N1CCC2(CC1)OCCO2	inactive: -5.37%	
COc1ccc(-n2cnc3cc(C(=O)N4CCC5(CC4)OCCO5)ccc32)cc1		inconclusive: 5.8 µM [activator, full curve]
O=C(C(=O)N1CCC2(CC1)OCCO2)c1c[nH]c2ccccc12		inconclusive: 29.1 µM [activator, single point]
CC(=O)[O][Hg][c]1ccccc1		inconclusive: 7.5 µM [activator, partial curve]
ClC1=C(Cl)C2(Cl)C(CBr)CC1(Cl)C2(Cl)Cl (centres undefined)	inactive: -5.77%	

3 records picked at random from the list so far:
SMILES	re-replication activation	Potency
Cc1cc(=O)oc2cc3c(cc12)CCCN3		inconclusive: 1.46 µM [activator, full curve, poor fit]
CCOc1ccc(-c2c(C)n(-c3ccc(OCC)cc3)c3[n+]2CCCCC3)cc1		inconclusive: 6.51 µM [activator, full curve]
CCSc1cc(C2C(C#N)=C(N)Oc3n[nH]c(C)c32)c(C)o1 (centres undefined)		inconclusive: 17.8 µM [activator, partial curve, poor fit]

Next compounds follow.

SMILES	re-replication activation	Potency
CC(NC1CCCCC1)C(O)C12CC3CC(CC(C3)C1)C2 (centres undefined)	inactive: 2.78%	
CC1CNCCN1c1ccc(Cl)cc1 (centres undefined)	inactive: -3.4%	
C[C@@H](N)[C@@H](O)c1ccc(O)c(O)c1	inactive: 10.5%	
Brc1ccc2c(c1)C(OC1CN3CCC1CC3)c1ccccc1CS2 (centres undefined)		inconclusive: 29.1 µM [activator, single point]
CC(=O)Nc1cc([As](=O)(O)O)ccc1O		inconclusive: 23.1 µM [activator, single point]
CC(=O)O[C@H]1CC[C@@]2(C)C(=CC[C@H]3[C@@H]4CC[C@H](C(C)=O)[C@@]4(C)CC[C@@H]32)C1		inconclusive: 0.291 µM [activator, partial curve, poor fit]
C=CCOC(Cn1ccnc1)c1ccc(Cl)cc1Cl (centres undefined)		inactive
O=C1NC(=O)N(Cc2ccccc2Cl)C(=O)/C1=C/c1cccs1		inconclusive: 29.1 µM [activator, single point]
COC(COC(N)=O)C1=C(N2CC2)C(=O)C(C)=C(N2CC2)C1=O (centres undefined)		inconclusive: 0.82 µM [activator, full curve]
CN1C2c3ccccc3C3C4c5ccccc5C(C31)C(C2[N+](=O)[O-])N4C (centres undefined)	inactive: -3.65%	
COC(=O)[C@]1(C)C[C@H]1[C@H](NP(=O)(c1ccccc1)c1ccccc1)c1ccccc1		inconclusive: 1.46 µM [activator, partial curve, poor fit]
O=C(c1cccc(Cl)c1)C1CCCN(Cc2ccon2)C1 (centres undefined)	inactive: -11%	
COc1ccccc1-n1c(O)c(/C=N/NC(=S)Nc2ccccc2)c(=O)[nH]c1=S		inconclusive: 2.59 µM [activator, partial curve, poor fit]
CC(CN(C)C1CCN(C)CC1)c1ccccc1 (centres undefined)		inconclusive: 0.0517 µM [activator, full curve, poor fit]
CC(C)NCC(O)c1ccccc1Cl (centres undefined)	inactive: 1.75%	
O[C@@H]1CCCN2CCc3c([nH]c4ccccc34)[C@H]12	inactive: 0.968%	
CC(=O)OC1CC2(O)C3CCC4CC(O)CCC4(C)C3CCC2(C)C1C1=CC(=O)OC1 (centres undefined)		active: 1.64 µM
CN1C(=O)/C(=C/c2cccn2-c2ccc3ccccc3c2)C(=O)NC1=S		inconclusive: 20.6 µM [activator, single point]
O=C(CS(=O)C(c1ccccc1)c1ccccc1)NO (centres undefined)	inactive: 2.13%	
Cc1cc(OC(C)C(=O)NCc2ccncc2)c2c3c(c(=O)oc2c1)CCC3 (centres undefined)		inconclusive: 0.58 µM [activator, full curve, poor fit]
CCN(CC)Cc1cc(Nc2ccnc3cc(Cl)ccc23)ccc1O		inactive
Cc1[nH]nc2ccc(-c3cncc(OC[C@@H](N)Cc4c[nH]c5ccccc45)c3)cc12		inconclusive: 0.58 µM [activator, full curve, poor fit]
CCN(CC)S(=O)(=O)c1ccc(C(=O)O)cc1		inconclusive: 18.4 µM [activator, partial curve, poor fit]
